The supplement of paper PMC12823440, “Inhibitors supercharge kinase turnover through native proteolytic circuits” (Nature, 2025)
Where a name gives a salt, the structure may show the parent alone. The list shows a part of the results. The calls rarely recur for the same compound in another form.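 Kinases, fused to nanoluciferase, were expressed in K562 cells; luminescence was measured every 4 h from 2 to 18 h as percent of control (DMSO = 100%, positive control = 0%). A time point is decreased if signal falls significantly (2 sigma). Hits were called by the authors by a rule that is not shown; the count of time points alone does not decide it.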

The chains behind the UniProt entries cited, without tags or fusion partners. Where a name states a change or a piece, a line headed by the entry shows the natural chain unless it says otherwise.
UniProt O15530: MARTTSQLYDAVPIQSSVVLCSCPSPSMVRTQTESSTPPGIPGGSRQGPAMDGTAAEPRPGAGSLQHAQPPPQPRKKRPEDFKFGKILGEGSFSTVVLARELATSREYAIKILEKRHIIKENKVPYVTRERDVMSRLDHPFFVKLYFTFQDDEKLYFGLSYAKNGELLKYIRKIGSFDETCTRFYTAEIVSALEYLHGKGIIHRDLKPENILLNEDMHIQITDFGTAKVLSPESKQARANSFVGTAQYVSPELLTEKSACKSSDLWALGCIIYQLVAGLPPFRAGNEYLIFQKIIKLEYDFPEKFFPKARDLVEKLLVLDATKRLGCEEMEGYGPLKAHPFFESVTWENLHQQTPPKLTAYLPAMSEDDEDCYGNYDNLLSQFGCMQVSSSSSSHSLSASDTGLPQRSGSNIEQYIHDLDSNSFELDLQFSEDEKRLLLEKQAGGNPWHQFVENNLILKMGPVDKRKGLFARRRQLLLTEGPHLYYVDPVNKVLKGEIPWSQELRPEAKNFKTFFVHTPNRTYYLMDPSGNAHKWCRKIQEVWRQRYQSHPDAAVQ
UniProt P53350, whole entry: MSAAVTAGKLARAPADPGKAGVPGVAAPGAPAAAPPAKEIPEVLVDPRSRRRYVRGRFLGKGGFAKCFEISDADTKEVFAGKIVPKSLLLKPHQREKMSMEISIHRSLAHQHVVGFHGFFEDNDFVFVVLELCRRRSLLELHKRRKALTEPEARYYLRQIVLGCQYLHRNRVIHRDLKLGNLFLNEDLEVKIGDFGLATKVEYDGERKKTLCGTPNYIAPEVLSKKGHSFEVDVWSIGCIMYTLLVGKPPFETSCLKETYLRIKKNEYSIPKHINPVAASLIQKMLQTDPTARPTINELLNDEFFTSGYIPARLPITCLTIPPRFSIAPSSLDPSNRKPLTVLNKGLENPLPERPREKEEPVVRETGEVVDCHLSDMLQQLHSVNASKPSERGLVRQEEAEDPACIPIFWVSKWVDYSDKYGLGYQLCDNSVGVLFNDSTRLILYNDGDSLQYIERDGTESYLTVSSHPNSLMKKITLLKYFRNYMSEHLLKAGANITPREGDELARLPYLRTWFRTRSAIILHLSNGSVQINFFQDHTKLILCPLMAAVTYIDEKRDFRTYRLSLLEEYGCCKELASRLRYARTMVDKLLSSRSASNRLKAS
UniProt Q13131: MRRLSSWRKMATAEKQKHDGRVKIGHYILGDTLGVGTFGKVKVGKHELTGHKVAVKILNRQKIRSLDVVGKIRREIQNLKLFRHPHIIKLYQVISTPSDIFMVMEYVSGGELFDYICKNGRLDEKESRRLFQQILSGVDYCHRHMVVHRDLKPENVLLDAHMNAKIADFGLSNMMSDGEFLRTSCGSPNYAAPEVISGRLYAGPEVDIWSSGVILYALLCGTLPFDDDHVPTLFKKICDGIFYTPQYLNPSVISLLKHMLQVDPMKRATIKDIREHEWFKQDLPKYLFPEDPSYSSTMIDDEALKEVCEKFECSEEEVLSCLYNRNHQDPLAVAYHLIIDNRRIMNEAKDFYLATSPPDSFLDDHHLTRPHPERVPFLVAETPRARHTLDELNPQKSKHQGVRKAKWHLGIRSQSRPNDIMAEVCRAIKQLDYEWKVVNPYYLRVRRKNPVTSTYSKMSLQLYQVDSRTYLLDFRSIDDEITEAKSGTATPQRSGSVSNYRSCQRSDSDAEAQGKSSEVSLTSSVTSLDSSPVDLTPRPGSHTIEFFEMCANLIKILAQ
UniProt Q05397, whole entry, looked up: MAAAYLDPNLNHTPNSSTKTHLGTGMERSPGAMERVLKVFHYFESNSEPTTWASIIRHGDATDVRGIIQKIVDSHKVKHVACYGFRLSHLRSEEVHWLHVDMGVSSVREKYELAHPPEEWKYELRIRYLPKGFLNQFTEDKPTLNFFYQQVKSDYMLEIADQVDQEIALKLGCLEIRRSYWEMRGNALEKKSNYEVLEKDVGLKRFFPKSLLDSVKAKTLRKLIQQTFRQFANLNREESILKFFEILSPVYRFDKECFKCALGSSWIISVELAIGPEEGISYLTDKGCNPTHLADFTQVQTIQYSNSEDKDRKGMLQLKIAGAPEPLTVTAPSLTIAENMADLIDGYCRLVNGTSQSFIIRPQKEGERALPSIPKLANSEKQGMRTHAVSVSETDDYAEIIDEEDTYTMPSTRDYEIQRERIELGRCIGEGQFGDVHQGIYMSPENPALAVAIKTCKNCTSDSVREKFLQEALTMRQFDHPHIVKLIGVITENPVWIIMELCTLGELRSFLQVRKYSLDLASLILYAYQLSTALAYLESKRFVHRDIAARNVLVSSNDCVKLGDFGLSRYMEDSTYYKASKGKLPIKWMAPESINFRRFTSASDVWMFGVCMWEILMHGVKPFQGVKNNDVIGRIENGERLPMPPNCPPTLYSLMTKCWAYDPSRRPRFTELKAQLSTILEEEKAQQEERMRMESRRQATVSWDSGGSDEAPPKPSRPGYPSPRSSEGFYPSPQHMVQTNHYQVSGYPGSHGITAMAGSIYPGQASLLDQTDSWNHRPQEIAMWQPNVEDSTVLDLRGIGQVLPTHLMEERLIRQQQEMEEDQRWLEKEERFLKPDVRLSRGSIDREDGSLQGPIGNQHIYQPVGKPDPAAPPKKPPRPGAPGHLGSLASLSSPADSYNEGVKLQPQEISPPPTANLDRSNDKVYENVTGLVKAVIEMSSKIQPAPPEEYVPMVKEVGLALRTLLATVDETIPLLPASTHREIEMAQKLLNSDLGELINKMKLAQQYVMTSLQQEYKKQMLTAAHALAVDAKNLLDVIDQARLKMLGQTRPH
UniProt Q14289, whole entry, looked up: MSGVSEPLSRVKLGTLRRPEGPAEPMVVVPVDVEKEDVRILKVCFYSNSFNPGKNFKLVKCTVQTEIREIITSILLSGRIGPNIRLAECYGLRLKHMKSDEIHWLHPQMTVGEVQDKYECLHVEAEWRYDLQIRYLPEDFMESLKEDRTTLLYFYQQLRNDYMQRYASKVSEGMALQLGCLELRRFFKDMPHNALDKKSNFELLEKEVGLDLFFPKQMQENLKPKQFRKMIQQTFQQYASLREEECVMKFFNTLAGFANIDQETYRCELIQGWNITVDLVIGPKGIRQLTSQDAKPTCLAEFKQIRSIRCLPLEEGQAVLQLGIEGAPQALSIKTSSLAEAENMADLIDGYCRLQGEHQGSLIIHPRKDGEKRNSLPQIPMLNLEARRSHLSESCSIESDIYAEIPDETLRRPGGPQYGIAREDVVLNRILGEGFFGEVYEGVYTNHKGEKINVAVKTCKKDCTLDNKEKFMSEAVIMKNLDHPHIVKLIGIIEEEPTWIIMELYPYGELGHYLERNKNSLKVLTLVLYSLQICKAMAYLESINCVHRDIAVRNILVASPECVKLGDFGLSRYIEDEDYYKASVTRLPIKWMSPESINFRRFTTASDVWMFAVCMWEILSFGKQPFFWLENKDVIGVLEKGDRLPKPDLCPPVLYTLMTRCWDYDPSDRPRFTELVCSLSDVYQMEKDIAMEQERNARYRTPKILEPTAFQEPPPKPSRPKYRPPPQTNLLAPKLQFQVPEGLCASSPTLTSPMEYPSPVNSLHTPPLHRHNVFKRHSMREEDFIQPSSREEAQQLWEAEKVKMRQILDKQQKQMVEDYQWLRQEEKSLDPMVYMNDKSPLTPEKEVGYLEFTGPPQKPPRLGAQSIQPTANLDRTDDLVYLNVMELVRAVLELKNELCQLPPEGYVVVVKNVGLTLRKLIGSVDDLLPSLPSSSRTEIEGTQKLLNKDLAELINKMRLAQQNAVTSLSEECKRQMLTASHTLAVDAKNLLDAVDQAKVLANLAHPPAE
UniProt P07949, whole entry, looked up: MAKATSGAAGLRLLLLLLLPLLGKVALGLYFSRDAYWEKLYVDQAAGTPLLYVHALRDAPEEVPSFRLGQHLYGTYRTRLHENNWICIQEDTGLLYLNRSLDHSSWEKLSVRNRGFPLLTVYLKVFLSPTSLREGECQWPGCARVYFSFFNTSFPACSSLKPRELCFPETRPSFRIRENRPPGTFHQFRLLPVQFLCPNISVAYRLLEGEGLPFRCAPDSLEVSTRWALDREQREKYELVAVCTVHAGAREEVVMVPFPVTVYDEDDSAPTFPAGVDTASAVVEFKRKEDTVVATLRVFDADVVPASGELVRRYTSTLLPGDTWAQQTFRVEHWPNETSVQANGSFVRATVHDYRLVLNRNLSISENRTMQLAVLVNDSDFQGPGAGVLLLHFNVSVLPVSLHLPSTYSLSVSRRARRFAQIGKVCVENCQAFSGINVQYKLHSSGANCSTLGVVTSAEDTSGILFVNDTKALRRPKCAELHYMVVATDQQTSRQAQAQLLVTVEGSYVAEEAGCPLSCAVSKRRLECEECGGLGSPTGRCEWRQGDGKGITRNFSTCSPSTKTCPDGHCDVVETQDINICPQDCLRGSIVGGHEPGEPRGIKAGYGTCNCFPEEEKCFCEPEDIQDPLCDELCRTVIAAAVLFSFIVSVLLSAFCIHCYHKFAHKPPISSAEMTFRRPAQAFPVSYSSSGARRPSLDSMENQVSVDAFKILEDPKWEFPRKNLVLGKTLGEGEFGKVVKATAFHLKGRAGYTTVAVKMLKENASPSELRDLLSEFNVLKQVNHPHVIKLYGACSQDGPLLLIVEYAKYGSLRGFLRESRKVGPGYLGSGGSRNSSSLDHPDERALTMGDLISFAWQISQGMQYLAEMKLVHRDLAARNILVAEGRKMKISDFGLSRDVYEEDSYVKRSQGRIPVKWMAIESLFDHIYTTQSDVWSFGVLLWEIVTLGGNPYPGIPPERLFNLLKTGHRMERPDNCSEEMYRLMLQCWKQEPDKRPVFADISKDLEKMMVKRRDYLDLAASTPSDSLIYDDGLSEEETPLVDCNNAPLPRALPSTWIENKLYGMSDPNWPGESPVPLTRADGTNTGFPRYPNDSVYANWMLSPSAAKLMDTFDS
UniProt P07949, whole entry M918T, looked up: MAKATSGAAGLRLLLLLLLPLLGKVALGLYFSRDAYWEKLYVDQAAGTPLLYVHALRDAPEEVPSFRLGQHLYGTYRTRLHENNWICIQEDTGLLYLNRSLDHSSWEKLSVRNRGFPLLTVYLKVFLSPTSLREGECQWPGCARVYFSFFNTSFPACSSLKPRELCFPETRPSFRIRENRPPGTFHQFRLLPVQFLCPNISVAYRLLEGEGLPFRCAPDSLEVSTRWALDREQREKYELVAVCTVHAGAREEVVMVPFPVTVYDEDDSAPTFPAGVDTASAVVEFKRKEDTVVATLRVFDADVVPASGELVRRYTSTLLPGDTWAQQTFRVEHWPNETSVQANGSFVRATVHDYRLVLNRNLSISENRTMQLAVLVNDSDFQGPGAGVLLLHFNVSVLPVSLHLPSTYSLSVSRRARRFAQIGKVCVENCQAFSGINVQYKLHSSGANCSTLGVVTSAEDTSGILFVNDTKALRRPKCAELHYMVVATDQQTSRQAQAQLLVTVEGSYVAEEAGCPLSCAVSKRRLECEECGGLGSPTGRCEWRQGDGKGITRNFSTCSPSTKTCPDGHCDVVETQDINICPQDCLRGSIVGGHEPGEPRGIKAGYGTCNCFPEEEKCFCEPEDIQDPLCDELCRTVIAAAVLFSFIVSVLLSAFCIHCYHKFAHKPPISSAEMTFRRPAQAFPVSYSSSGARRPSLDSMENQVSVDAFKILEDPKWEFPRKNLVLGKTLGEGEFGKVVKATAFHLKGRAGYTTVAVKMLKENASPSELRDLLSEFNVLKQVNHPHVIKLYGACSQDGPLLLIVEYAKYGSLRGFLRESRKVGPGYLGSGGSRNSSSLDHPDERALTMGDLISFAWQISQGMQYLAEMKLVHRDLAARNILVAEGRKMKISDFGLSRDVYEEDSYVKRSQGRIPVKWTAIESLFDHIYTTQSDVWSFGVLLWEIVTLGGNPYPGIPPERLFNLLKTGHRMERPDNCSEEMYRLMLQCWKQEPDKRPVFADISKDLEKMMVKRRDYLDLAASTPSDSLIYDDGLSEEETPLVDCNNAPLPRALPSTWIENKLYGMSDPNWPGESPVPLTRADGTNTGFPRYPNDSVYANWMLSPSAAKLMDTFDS
UniProt Q9BRS2: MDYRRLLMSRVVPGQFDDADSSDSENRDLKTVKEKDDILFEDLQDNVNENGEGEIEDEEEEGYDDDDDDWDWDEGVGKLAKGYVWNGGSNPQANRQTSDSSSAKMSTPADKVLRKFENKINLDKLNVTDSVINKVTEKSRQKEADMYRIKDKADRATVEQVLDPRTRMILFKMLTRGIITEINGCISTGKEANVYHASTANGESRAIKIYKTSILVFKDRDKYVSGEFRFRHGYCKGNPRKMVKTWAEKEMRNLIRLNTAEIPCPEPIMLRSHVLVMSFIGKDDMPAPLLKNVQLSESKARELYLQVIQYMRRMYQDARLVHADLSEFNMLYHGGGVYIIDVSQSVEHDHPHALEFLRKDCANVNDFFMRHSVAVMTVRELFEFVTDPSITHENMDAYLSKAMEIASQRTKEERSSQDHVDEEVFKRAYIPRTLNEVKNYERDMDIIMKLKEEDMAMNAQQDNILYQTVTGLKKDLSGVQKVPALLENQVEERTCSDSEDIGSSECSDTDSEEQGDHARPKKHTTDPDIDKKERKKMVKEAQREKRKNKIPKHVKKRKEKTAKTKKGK

Experiments:
Assay in all cases: kinase-Nluc reporter destabilization hit call (1 = scored as downregulated) (binary); higher = compound decreases kinase abundance
Settings in all cases: K562; 2-18 h
PDPK1 = PDPK1 (UniProt O15530)
PIK4CA = PIK4CA (UniProt P42356)
PIK4CB = PIK4CB (UniProt Q9UBF8)
PLK1 = PLK1 (UniProt P53350)
PRKAA1 = PRKAA1 (UniProt Q13131)
PRKCA = PRKCA (UniProt P17252)
PTK2 = PTK2 (UniProt Q05397)
PTK2B = PTK2B (UniProt Q14289)
RAF1 = RAF1 (UniProt P04049)
[1] = target: RAF1_S257L (clone: RAF1_mut) (UniProt P04049)
RET = RET (UniProt P07949)
[2] = target: RET_M918T (clone: RET_mut) (UniProt P07949)
RIOK1 = RIOK1 (UniProt Q9BRS2)
RIPK1 = RIPK1 (UniProt Q13546)
RIPK2 = RIPK2 (UniProt O43353)
ROR2 = ROR2 (UniProt Q01974)
RPS6KA1 = RPS6KA1 (UniProt Q15418)
SPHK1 = SPHK1 (UniProt Q9NYA1)
SRC = SRC (UniProt P12931)
STK24 = STK24 (UniProt Q9Y6E0)

Measured: kinase-Nluc reporter destabilization hit call

CCCS(=O)(=O)Nc1ccc(F)c(-n2cc(-c3cncnc3)c3nc(N(C)C4CCN(CC)CC4)ccc32)c1F (2 µM)
inactive: PDPK1 = 0 | PIK4CA 0 | PIK4CB 0 | PLK1 = 0 | PRKAA1 = 0 | PRKCA 0 | PTK2 = 0 | PTK2B 0 | RAF1 = 0 | [1] 0 | RET 0 | [2] 0 | RIOK1 = 0 | RIPK1 = 0 | RIPK2 = 0 | ROR2 = 0 | RPS6KA1 = 0 | SPHK1 = 0 | SRC 0 | STK24 = 0

O=C1c2ccccc2C(=O)c2c1cccc2-c1cnn(C2CCNCC2)c1 [PDK4-IN-1 (hydrochloride)] (10 µM)
inactive: PDPK1 = 0 | PIK4CA 0 | PIK4CB 0 | PLK1 = 0 | PRKAA1 = 0 | PRKCA 0 | PTK2 = 0 | PTK2B 0 | RAF1 = 0 | [1] 0 | RET 0 | [2] 0 | RIOK1 = 0 | RIPK1 = 0 | RIPK2 = 0 | ROR2 = 0 | RPS6KA1 = 0 | SPHK1 = 0 | SRC 0 | STK24 = 0

CC1C(=O)OC2C(O)C34C5OC(=O)C3(OC3OC(=O)C(O)C34C(C(C)(C)C)C5O)C12O (stereo not given) [Ginkgolide C] (10 µM)
inactive: PDPK1 = 0 | PIK4CA 0 | PIK4CB 0 | PLK1 = 0 | PRKAA1 = 0 | PRKCA 0 | PTK2 = 0 | PTK2B 0 | RAF1 = 0 | [1] 0 | RET 0 | [2] 0 | RIOK1 = 0 | RIPK1 = 0 | RIPK2 = 0 | ROR2 = 0 | RPS6KA1 = 0 | SPHK1 = 0 | SRC 0 | STK24 = 0

CC(=O)O[C@H]1[C@H]2[C@@H](OC(=O)Cc3ccccc3)[C@@H](C)C[C@]2(OC(C)=O)C(=O)/C(C)=C/[C@@H]2[C@H](CC[C@@]13CO3)C2(C)C [Euphorbiasteroid] (10 µM)
inactive: PDPK1 = 0 | PIK4CA 0 | PIK4CB 0 | PLK1 = 0 | PRKAA1 = 0 | PRKCA 0 | PTK2 = 0 | PTK2B 0 | RAF1 = 0 | [1] 0 | RET 0 | [2] 0 | RIOK1 = 0 | RIPK1 = 0 | RIPK2 = 0 | ROR2 = 0 | RPS6KA1 = 0 | SPHK1 = 0 | SRC 0 | STK24 = 0

CC(=O)OC(C)(C)/C=C/C(=O)[C@](C)(O)[C@H]1[C@H](O)C[C@@]2(C)[C@@H]3CC=C4[C@@H](C=C(O)C(=O)C4(C)C)[C@]3(C)C(=O)C[C@]12C [Cucurbitacin E] (2.5 µM)
inactive: PIK4CA 0 | PIK4CB 0 | PLK1 = 0 | PRKAA1 = 0 | PRKCA 0 | PTK2 = 0 | PTK2B 0 | RAF1 = 0 | [1] 0 | RET 0 | [2] 0 | RIOK1 = 0 | RIPK1 = 0 | RIPK2 = 0 | ROR2 = 0 | RPS6KA1 = 0 | SPHK1 = 0 | SRC 0 | STK24 = 0
active: PDPK1 = 1

CC(=O)Oc1ccc(/C=C/c2cc(OC(C)=O)cc(OC(C)=O)c2)cc1 [Triacetylresveratrol] (10 µM)
inactive: PDPK1 = 0 | PIK4CA 0 | PIK4CB 0 | PLK1 = 0 | PRKAA1 = 0 | PRKCA 0 | PTK2 = 0 | PTK2B 0 | RAF1 = 0 | [1] 0 | RET 0 | [2] 0 | RIOK1 = 0 | RIPK1 = 0 | RIPK2 = 0 | ROR2 = 0 | RPS6KA1 = 0 | SPHK1 = 0 | SRC 0 | STK24 = 0

Nc1ncnc2c1ncn2[C@@H]1O[C@@H]2COP(O)(=S)O[C@H]2[C@H]1O (stereo not given in full) [Sp-cAMPS (sodium salt)] (10 µM)
inactive: PDPK1 = 0 | PIK4CA 0 | PIK4CB 0 | PLK1 = 0 | PRKAA1 = 0 | PRKCA 0 | PTK2 = 0 | PTK2B 0 | RAF1 = 0 | [1] 0 | RET 0 | [2] 0 | RIOK1 = 0 | RIPK1 = 0 | RIPK2 = 0 | ROR2 = 0 | RPS6KA1 = 0 | SPHK1 = 0 | SRC 0 | STK24 = 0

O=C(/C=C/c1ccccc1)OC[C@H]1O[C@@H](O[C@@H]2OC=C[C@H]3[C@H](O)[C@@H]4O[C@]4(CO)[C@@H]23)[C@H](O)[C@@H](O)[C@@H]1O [Picroside I] (10 µM)
inactive: PDPK1 = 0 | PIK4CA 0 | PIK4CB 0 | PLK1 = 0 | PRKAA1 = 0 | PRKCA 0 | PTK2 = 0 | PTK2B 0 | RAF1 = 0 | [1] 0 | RET 0 | [2] 0 | RIOK1 = 0 | RIPK1 = 0 | RIPK2 = 0 | ROR2 = 0 | RPS6KA1 = 0 | SPHK1 = 0 | SRC 0 | STK24 = 0

COc1ccc2c(c1)[nH]c1c(C)nccc12 [Harmine] (10 µM)
inactive: PDPK1 = 0 | PIK4CA 0 | PIK4CB 0 | PLK1 = 0 | PRKAA1 = 0 | PRKCA 0 | PTK2 = 0 | PTK2B 0 | RAF1 = 0 | [1] 0 | RET 0 | [2] 0 | RIOK1 = 0 | RIPK1 = 0 | RIPK2 = 0 | ROR2 = 0 | RPS6KA1 = 0 | SPHK1 = 0 | SRC 0 | STK24 = 0

Quoted at random: two compounds from above
CC(=O)OC(C)(C)/C=C/C(=O)[C@](C)(O)[C@H]1[C@H](O)C[C@@]2(C)[C@@H]3CC=C4[C@@H](C=C(O)C(=O)C4(C)C)[C@]3(C)C(=O)C[C@]12C [Cucurbitacin E] (2.5 µM)
inactive: PIK4CA 0 | PIK4CB 0 | PLK1 = 0 | PRKAA1 = 0 | PRKCA 0 | PTK2 = 0 | PTK2B 0 | RAF1 = 0 | [1] 0 | RET 0 | [2] 0 | RIOK1 = 0 | RIPK1 = 0 | RIPK2 = 0 | ROR2 = 0 | RPS6KA1 = 0 | SPHK1 = 0 | SRC 0 | STK24 = 0
active: PDPK1 = 1

CC(=O)O[C@H]1[C@H]2[C@@H](OC(=O)Cc3ccccc3)[C@@H](C)C[C@]2(OC(C)=O)C(=O)/C(C)=C/[C@@H]2[C@H](CC[C@@]13CO3)C2(C)C [Euphorbiasteroid] (10 µM)
inactive: PDPK1 = 0 | PIK4CA 0 | PIK4CB 0 | PLK1 = 0 | PRKAA1 = 0 | PRKCA 0 | PTK2 = 0 | PTK2B 0 | RAF1 = 0 | [1] 0 | RET 0 | [2] 0 | RIOK1 = 0 | RIPK1 = 0 | RIPK2 = 0 | ROR2 = 0 | RPS6KA1 = 0 | SPHK1 = 0 | SRC 0 | STK24 = 0

Next part:

CCCCNc1nc(N)c2[nH]c(=O)n(Cc3ccc(C)nc3)c2n1 (10 µM)
inactive: PDPK1 = 0 | PIK4CA 0 | PIK4CB 0 | PLK1 = 0 | PRKAA1 = 0 | PRKCA 0 | PTK2 = 0 | PTK2B 0 | RAF1 = 0 | [1] 0 | RET 0 | [2] 0 | RIOK1 = 0 | RIPK1 = 0 | RIPK2 = 0 | ROR2 = 0 | RPS6KA1 = 0 | SPHK1 = 0 | SRC 0 | STK24 = 0

Cn1cc(C2=C(c3cn(C4CCN(Cc5ccccn5)CC4)c4ccccc34)C(=O)NC2=O)c2ccccc21 [Enzastaurin] (10 µM)
inactive: PDPK1 = 0 | PIK4CA 0 | PIK4CB 0 | PLK1 = 0 | PRKAA1 = 0 | PRKCA 0 | PTK2 = 0 | PTK2B 0 | RAF1 = 0 | [1] 0 | RET 0 | [2] 0 | RIOK1 = 0 | RIPK1 = 0 | RIPK2 = 0 | ROR2 = 0 | RPS6KA1 = 0 | SPHK1 = 0 | SRC 0 | STK24 = 0

O=c1ccc2cc(O[C@@H]3O[C@H](CO)[C@@H](O)[C@H](O)[C@H]3O)c(O)cc2o1 [Esculin] (10 µM)
inactive: PDPK1 = 0 | PIK4CA 0 | PIK4CB 0 | PLK1 = 0 | PRKAA1 = 0 | PRKCA 0 | PTK2 = 0 | PTK2B 0 | RAF1 = 0 | [1] 0 | RET 0 | [2] 0 | RIOK1 = 0 | RIPK1 = 0 | RIPK2 = 0 | ROR2 = 0 | RPS6KA1 = 0 | SPHK1 = 0 | SRC 0 | STK24 = 0

Cc1ccccc1-n1c(Cn2cnc3c(N)ncnc32)nc2cccc(C)c2c1=O (10 µM)
inactive: PDPK1 = 0 | PIK4CA 0 | PIK4CB 0 | PLK1 = 0 | PRKAA1 = 0 | PRKCA 0 | PTK2 = 0 | PTK2B 0 | RAF1 = 0 | [1] 0 | RET 0 | [2] 0 | RIOK1 = 0 | RIPK1 = 0 | RIPK2 = 0 | ROR2 = 0 | RPS6KA1 = 0 | SPHK1 = 0 | SRC 0 | STK24 = 0

C[C@@H]1CC[C@H]2[C@@H](C)C(=O)O[C@@H]3O[C@@]4(C)CC[C@@H]1[C@]32OO4 [Artemisinin] (10 µM)
inactive: PDPK1 = 0 | PIK4CA 0 | PIK4CB 0 | PLK1 = 0 | PRKAA1 = 0 | PRKCA 0 | PTK2 = 0 | PTK2B 0 | RAF1 = 0 | [1] 0 | RET 0 | [2] 0 | RIOK1 = 0 | RIPK1 = 0 | RIPK2 = 0 | ROR2 = 0 | RPS6KA1 = 0 | SPHK1 = 0 | SRC 0 | STK24 = 0

N#CC(C#N)=Cc1ccc([N+](=O)[O-])c(O)c1 (10 µM)
inactive: PDPK1 = 0 | PIK4CA 0 | PIK4CB 0 | PLK1 = 0 | PRKAA1 = 0 | PRKCA 0 | PTK2 = 0 | PTK2B 0 | RAF1 = 0 | [1] 0 | RET 0 | [2] 0 | RIOK1 = 0 | RIPK1 = 0 | RIPK2 = 0 | ROR2 = 0 | RPS6KA1 = 0 | SPHK1 = 0 | SRC 0 | STK24 = 0

C[C@H]1CC[C@]2(NC1)O[C@H]1C[C@H]3[C@@H]4CC[C@H]5C[C@@H](O)CC[C@]5(C)[C@H]4CC[C@]3(C)[C@H]1[C@@H]2C [Tomatidine] (2 µM)
inactive: PDPK1 = 0 | PIK4CA 0 | PIK4CB 0 | PLK1 = 0 | PRKAA1 = 0 | PRKCA 0 | PTK2 = 0 | PTK2B 0 | RAF1 = 0 | [1] 0 | RET 0 | [2] 0 | RIOK1 = 0 | RIPK1 = 0 | RIPK2 = 0 | ROR2 = 0 | RPS6KA1 = 0 | SPHK1 = 0 | SRC 0 | STK24 = 0

C[C@H](Nc1ncnc2[nH]cnc12)c1nc2ccc(F)cc2c(=O)n1-c1ccccc1 [Acalisib] (10 µM)
inactive: PDPK1 = 0 | PIK4CA 0 | PIK4CB 0 | PLK1 = 0 | PRKAA1 = 0 | PRKCA 0 | PTK2 = 0 | PTK2B 0 | RAF1 = 0 | [1] 0 | RET 0 | [2] 0 | RIOK1 = 0 | RIPK1 = 0 | RIPK2 = 0 | ROR2 = 0 | RPS6KA1 = 0 | SPHK1 = 0 | SRC 0 | STK24 = 0
